According to PubChem BioAssay AID1439 (NMMLSC, 2008):
Out of some 220,000 compounds screened, about 770 (0.35%) were called active. The inconclusive results got no clear call from the source; some entries with a clear call stand among them for comparison. Cut-off read from the data, not from the text of the source: active = binding response below about 49% or above about 150%; inconclusive = no clear call, values can overlap the other calls; inactive = in between.

Amino acid sequences for entries named in this document (tags omitted).
UniProt P09471, whole entry, looked up: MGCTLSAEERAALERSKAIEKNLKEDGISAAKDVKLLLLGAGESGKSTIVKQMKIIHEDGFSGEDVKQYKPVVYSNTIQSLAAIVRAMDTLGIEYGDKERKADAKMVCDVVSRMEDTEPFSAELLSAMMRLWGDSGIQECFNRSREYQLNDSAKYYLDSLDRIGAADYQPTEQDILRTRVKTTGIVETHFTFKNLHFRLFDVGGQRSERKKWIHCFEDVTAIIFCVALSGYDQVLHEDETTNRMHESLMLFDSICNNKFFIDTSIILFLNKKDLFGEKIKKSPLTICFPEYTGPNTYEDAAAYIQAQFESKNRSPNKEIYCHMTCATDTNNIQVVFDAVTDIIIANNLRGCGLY

What follows are compounds tested against Guanine nucleotide-binding protein G(o) subunit alpha (Homo sapiens) (UniProt P09471) (assay: RGS7-Galphao binding modulators, primary screen, biochemical, multiplexed bead flow cytometry (AID 1439;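 note: fluorescent Galphao held in activated GDP-AlF4 state binding bead-coupled RGS7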)). Conditions: at 10 µM, actives lie on both sides.

Structure (SMILES) | binding response (% of control)
COc1ccc2cnn(-c3ccc(OC(F)(F)Cl)cc3)c(=O)c2c1OC | inconclusive: -1.71%
COc1ccc(CCN(Cc2ccccn2)C(=S)Nc2ccccc2C)cc1OC | inconclusive: 94.5%
CCCCN1CCc2[nH]c(=S)[nH]c(=O)c2C1 | inactive: 101%
CCCCCNc1nc2sc3c(c2c(=O)n1-c1cccc(Cl)c1)CCN(C)C3 | inconclusive: 96%
O=C(O)Cn1cnc2c(oc3ccccc32)c1=O | inconclusive: 94.5%
COc1ccc(CNC(=O)CSc2nnc3nc(C)cc(C)n23)cc1OC | inconclusive: 91.7%
O=[N+]([O-])c1ccc(CN2CCN(Cc3c[nH]c4ccccc34)CC2)cc1 | inconclusive: 112%
CCC(C)(C)NC(=S)Nc1ccccc1C | inconclusive: 82.1%
O=C(Nc1cccc(F)c1)c1coc(=O)c(Br)c1 | active: 45.3%
O=C(c1ccc([N+](=O)[O-])cc1)N(Cc1ccccc1)c1ccccn1 | inconclusive: 108%
O=C(O)c1ccc(CNCc2ccc(F)cc2)cc1 | inconclusive: 104%
Cn1nc(-c2ccccc2)cc1NC(=O)c1cccs1 | inconclusive: 101%
CC(C)(C)c1cc(C(=O)NNc2ccc(OC(F)(F)F)cc2)n(Cc2ccccc2)n1 | inconclusive: 108%
CSc1ccc(C(=O)C2CCCN(C(=O)c3ccc(C)nc3)C2)cc1 (stereo not given) | inactive: 96%
Cc1c(Cl)cccc1NC(=O)C(=O)NNC(=O)c1ccccc1F | inconclusive: 107%
Cc1nc2ccc(Cl)cc2nc1C | inconclusive: 94.7%
CC(Sc1nc2sc3c(c2c(=O)n1-c1ccccc1)CCCC3)C(=O)O (stereo not given) | inconclusive: 92.2%
Cc1nc(C(=O)NNC(=O)c2ccccc2)c(C(F)(F)F)o1 | inconclusive: 88.9%
CO/N=C/Cc1c([N+](=O)[O-])c(C)nn1C | inconclusive: 114%
O=C(O)COc1ccccc1/C=N/NC(=O)c1cccc(S(=O)(=O)Nc2cccc(Cl)c2)c1 | inactive: 100%
COc1ccc(-c2csc3nc(-c4ccccc4OC)oc(=O)c23)cc1 | inconclusive: 110%
OCCC#Cc1ccc(CN2CCN(Cc3ccccc3)C(CCO)C2)cc1 (stereo not given) | inconclusive: 111%
CNC(=O)N(O)C1N(/N=C/c2ccccc2O)C(=S)SC1(C)C (stereo not given) | inconclusive: 9.52%

Structure (SMILES) | binding response (% of control)
Cc1cc(=O)oc(C)c1C(=O)NNC(=O)C1(C)CC1Br (stereo not given) | inconclusive: 102%
O=[N+]([O-])c1c(-c2cn[nH]c2)n[nH]c1-c1cn[nH]c1 | inconclusive: 87.1%
CC1(C)CC(=O)C=C(NCc2ccc(C(=O)O)cc2)C1 | inconclusive: 83.9%
Cc1csc(NC(=O)COCC(=O)O)c1-c1nc2ccccc2s1 | inconclusive: 147%
CCOc1ccc(-c2csc(NNC3=NCCCCC3)n2)cc1 | inactive: 103%
N/C(=N\OC(=O)/C=C/c1ccccc1)c1ccc(Cl)cc1 | inconclusive: 117%
NC(=O)Cn1nnc(-c2ccc(NC(=O)c3ccc(F)cc3)cc2)n1 | inconclusive: 87.2%
CCOC(=O)c1cc(C)nn1-c1nc(Cl)cc(OC)n1 | inactive: 97.4%
Cc1ccc(C(=O)/C=C/c2ccc3c(c2)OCCO3)c(O)c1 | inconclusive: 101%
Cc1ccc(NC(=O)N2N=C(c3ccc(F)cc3)CC2c2ccc(F)cc2)cc1 (stereo not given) | inactive: 103%
O=C(Nc1cccc(C(F)(F)F)c1)n1cc(-c2ccccn2)c(N2CCOCC2)n1 | inactive: 101%
COc1ccc(-n2nc(C)c3onc(C)c3c2=O)cc1 | inconclusive: 122%
Cc1cccc2cc(/C=N/NC(=O)c3ccncc3)c(Cl)nc12 | inconclusive: 73.6%
COc1c(O)cc2oc(-c3ccc(O)cc3)cc(=O)c2c1O | inconclusive: 90.4%
CC(C)(C)OC(=O)N[C@@H](Cc1ccccc1)[C@H](O)c1ccco1 | inconclusive: 112%
S=c1[nH]nc(C2(c3ccccc3)CCCC2)o1 | inconclusive: 125%
COC(=O)c1ccc2c(=O)n(Cc3ccc4c(c3)OCO4)c(SCC(=O)N3CCCC3)nc2c1 | inconclusive: 99.5%
[O-]/C(=C(\C(=S)Nc1ccccc1F)[n+]1ccccc1)c1ccc(-c2ccccc2)cc1 | inconclusive: 80.1%
COc1cc(NC(=O)Nc2cccc(Cl)c2)c(C(=O)O)cc1OC | inconclusive: 99.8%
Oc1ccc(-c2csc(-c3cccnc3)n2)c(O)c1 | inconclusive: 67.8%
CC(NC(=O)c1cccc(S(=O)(=O)N2CCN(C)CC2)c1)C1CC2CCC1C2 (stereo not given) | inconclusive: 114%
O=C(NC1CC1)c1ccc2snnc2c1 | inconclusive: 103%
CC(C)(CNC(=S)NCCc1ccccc1)CNC(=S)NCCc1ccccc1 | inactive: 111%

Structure (SMILES) | binding response (% of control)
Cc1nonc1NC(=O)CSc1nc(CCC2CCCC2)nc2ccccc12 | inconclusive: 88%
Cc1nnc(SCC(=O)Nc2cc(S(=O)(=O)N3CCCC3)ccc2Cl)s1 | inconclusive: 123%
COCCNC(=O)c1ccc2c3n(nc2c1)-c1ccc(C)cc1CO3 | inconclusive: 102%
CCc1cc(S(N)(=O)=O)cc(CC)c1NC(C)=O | inconclusive: 242%
COc1ccc(N2CCN(C(=O)COc3ccc4ccccc4c3)CC2)cc1 | inactive: 106%
CCOC(=O)c1c(/N=C/C2=C(O)CC(C)(C)CC2=O)sc(C(C)=O)c1C | inconclusive: 90.8%
Cc1ccc(-c2csc3nc4c5ccccc5c(NCCCN5CCOCC5)nn4c(=O)c23)cc1 | inconclusive: 99.3%
COc1cccc(OCC(=O)NNC(=S)Nc2ccc(Cl)cc2Cl)c1 | inactive: 96.7%
C(=N\Nc1nncc2ccccc12)/c1ccccc1 | inconclusive: 97.6%
Cc1ccc(CNC(=O)CCCCn2c(=O)[nH]c3ccsc3c2=O)cc1 | inconclusive: 92.2%
CCCCn1cnc(C(=O)OCC)c1N | inactive: 101%
CCN(CC(=O)NC(C)C)Cc1nc2c(Br)cc(Br)cc2c(=O)[nH]1 | inconclusive: 97.8%
O=C(O)CC12CC3CC(C1)CC(n1ncc(NCc4ccccc4)c(Cl)c1=O)(C3)C2 | inconclusive: 45.3%
CCCCCCN1C=CC=C/C1=C\C=C(C#N)C#N | inconclusive: 49.8%
CCOc1ccc(N=C(/C(C(=O)C(=O)N2CCOCC2)=C(/O)c2ccccc2)c2ccccc2)cc1 | inconclusive: 62%
O=C(NNc1ncnc2sccc12)c1ccc(Cl)cc1 | inconclusive: 82.8%
Cn1cc(-c2nnnn2-c2ccc(Cl)cc2)c(=O)c2ccccc21 | inactive: 124%
COCCNC(=O)C1CCN(S(=O)(=O)c2c(C)noc2/C=C/c2cccs2)CC1 | inconclusive: 102%
O=C(c1ccccc1Cl)N(Cc1ccc(Br)cc1)N1C(=O)CCC1=O | inactive: 95.6%
Cc1cccc(C)c1NC(=O)C(=O)c1cn(C)c2ccccc12 | inactive: 102%
O=C(NCC1CC1)NC(=O)c1c(F)cccc1Cl | inconclusive: 157%
O=C(NCc1ccccc1)c1ccc(CNc2c(N3CCCC3)c(=O)c2=O)cc1 | inconclusive: 96.5%
CC(=O)Nc1sc(C)c(C)c1C(=O)OCC(=O)Nc1cc(S(C)(=O)=O)ccc1Cl | inconclusive: 117%

Structure (SMILES) | binding response (% of control)
Cc1ccc(Nc2nnc(SCC(=O)NCc3ccco3)s2)cc1 | inactive: 93.8%
CN(c1ccccc1)S(=O)(=O)c1cccc(C(=O)Nc2nn[nH]n2)c1 | inconclusive: 139%
CC1CCN(C(=O)c2ccc(NS(=O)(=O)c3cccc4cccnc34)cc2)CC1 | inconclusive: 93.8%
CCN(CC(=O)NC(C)(C)C)C(=O)COc1c(Cl)cc(Cl)c2ccc(C)nc12 | inconclusive: 81.2%
O=C(O)c1ccc(Cl)c(S(=O)(=O)Nc2ccc3cn[nH]c3c2)c1 | inconclusive: 81.3%
O=C(CNC(=O)c1ccco1)OCc1ccc(C(=O)c2ccccc2)cc1 | inconclusive: 86.1%
COc1ccc(N2C(=O)C3C(C2=O)C(C(=O)c2ccc(Cl)cc2)N2CCCC32)cc1 (stereo not given) | inconclusive: 84%
Cc1ccc2cc(COC(=O)c3cccc([N+](=O)[O-])c3)c(=O)[nH]c2c1 | inconclusive: -163%
COc1ccc(-c2noc(CN(C)C(=O)Nc3ccccc3)n2)cc1 | inconclusive: 111%
Cc1ccc(-c2nnc(N3CCCCC3)c3ccccc23)cc1S(=O)(=O)N1CCN(C)CC1 | inactive: 103%
COc1ccc(C2c3c(-c4ccccc4)n[nH]c3C(=O)N2c2ccc(C(=O)O)cc2)cc1 (stereo not given) | inconclusive: 98.3%
Cc1cc(C)c(C)c(C(=O)CSc2nnc(C)c(=O)[nH]2)c1C | inactive: 112%
COc1cccc(/C=N/NC(=O)C(C)Cn2cnc3ccccc32)c1 (stereo not given) | inconclusive: 12.8%
O=C(NCc1ccccn1)c1nn(-c2ccccc2)c(=O)c2ccccc12 | inconclusive: 78.2%
C/C(CCC(C)C)=N\Nc1cc(C)c2ccccc2n1 | inconclusive: 125%
O=C(O)COc1ccccc1/C=N/Nc1ccc(S(=O)(=O)N2CCOCC2)cc1[N+](=O)[O-] | inconclusive: 92.8%
CC(C)C[C@H](NC(=O)[C@@H]1Cc2ccccc2CN1C(=O)OC(C)(C)C)C(=O)NCC1CCC(C(=O)O)CC1 (stereo not given in full) | inconclusive: 104%
Cc1ccc2sc(NC(=O)CN3C(=O)c4ccccc4C3=O)nc2c1C | inactive: 114%
CCC(=O)OCC(=O)Nc1ccc2c(c1)OCO2 | inconclusive: 92.9%
CCOC(=O)/C=C/c1nc(C(=O)OCC)c(C)c(=O)[nH]1 | inconclusive: 108%
O=C(COC(=O)c1ccccc1Oc1ccccc1)NC1CCS(=O)(=O)C1 (stereo not given) | inactive: 110%
